# Reference: PubChem BioAssay (NCATS)
# The chains behind the UniProt entries cited, without tags or fusion partners. Where a name states a change or a piece, a line headed by the entry shows the natural chain unless it says otherwise.
# UniProt P08684, whole entry, looked up: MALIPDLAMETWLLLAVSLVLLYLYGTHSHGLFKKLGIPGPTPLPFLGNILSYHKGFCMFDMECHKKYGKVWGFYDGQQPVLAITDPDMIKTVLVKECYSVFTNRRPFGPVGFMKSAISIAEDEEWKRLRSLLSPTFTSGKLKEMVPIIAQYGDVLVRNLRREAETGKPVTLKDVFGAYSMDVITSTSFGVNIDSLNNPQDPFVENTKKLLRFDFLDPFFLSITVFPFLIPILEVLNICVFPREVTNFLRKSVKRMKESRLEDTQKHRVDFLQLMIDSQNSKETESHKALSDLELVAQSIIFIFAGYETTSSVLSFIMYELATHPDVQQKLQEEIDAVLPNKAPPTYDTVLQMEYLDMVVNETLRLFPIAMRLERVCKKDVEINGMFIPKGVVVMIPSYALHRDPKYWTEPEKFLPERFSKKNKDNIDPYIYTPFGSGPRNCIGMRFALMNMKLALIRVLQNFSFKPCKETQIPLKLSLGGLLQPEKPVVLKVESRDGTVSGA
# UniProt P10275: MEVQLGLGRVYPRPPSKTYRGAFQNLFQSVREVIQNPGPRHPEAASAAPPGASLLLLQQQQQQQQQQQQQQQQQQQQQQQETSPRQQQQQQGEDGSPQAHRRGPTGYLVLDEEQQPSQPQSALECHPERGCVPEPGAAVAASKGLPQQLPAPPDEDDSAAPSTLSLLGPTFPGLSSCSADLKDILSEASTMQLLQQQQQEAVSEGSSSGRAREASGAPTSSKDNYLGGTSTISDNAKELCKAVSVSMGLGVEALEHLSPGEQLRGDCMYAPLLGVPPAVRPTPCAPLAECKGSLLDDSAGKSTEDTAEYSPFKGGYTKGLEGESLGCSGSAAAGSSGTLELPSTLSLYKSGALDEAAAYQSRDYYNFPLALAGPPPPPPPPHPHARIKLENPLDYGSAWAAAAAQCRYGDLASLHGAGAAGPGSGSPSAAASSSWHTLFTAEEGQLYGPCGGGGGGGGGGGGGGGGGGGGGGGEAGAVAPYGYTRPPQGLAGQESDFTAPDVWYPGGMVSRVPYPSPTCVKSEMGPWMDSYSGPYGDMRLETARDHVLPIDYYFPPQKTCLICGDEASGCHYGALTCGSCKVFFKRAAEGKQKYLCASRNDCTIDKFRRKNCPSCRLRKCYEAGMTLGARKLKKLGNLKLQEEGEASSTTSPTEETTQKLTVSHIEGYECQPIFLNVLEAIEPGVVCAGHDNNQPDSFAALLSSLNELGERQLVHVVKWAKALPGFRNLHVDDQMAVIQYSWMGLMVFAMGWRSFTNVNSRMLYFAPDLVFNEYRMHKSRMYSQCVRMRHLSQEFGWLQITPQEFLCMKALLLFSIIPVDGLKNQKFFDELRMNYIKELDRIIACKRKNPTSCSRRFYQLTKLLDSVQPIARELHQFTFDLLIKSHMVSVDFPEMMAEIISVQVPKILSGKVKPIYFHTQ
# UniProt P11473: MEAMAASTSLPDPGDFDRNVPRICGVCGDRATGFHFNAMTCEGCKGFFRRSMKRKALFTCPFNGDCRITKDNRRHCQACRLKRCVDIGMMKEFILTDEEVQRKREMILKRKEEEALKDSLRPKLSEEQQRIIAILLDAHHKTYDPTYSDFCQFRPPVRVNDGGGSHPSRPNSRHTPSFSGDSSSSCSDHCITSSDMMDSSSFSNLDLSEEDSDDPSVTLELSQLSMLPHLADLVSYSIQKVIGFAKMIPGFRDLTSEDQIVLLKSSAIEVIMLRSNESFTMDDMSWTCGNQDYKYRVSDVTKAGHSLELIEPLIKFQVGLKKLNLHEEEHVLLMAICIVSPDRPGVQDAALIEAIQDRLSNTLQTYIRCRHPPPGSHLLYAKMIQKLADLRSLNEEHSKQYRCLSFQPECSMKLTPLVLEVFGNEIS
# UniProt P37231: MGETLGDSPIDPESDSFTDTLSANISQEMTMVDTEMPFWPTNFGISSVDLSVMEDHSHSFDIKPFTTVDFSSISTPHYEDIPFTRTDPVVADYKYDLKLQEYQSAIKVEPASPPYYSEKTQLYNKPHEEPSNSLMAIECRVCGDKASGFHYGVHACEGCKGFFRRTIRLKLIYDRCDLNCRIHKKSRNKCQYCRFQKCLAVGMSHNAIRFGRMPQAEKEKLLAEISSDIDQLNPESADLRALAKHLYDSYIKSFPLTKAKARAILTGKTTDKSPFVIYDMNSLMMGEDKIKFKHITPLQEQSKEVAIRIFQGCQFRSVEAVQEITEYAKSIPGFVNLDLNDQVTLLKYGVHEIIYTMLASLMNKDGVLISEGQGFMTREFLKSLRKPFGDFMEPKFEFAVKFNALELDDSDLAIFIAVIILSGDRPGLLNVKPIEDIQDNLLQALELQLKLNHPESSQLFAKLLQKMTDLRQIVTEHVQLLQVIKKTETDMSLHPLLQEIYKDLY
# UniProt P01375, whole entry, looked up: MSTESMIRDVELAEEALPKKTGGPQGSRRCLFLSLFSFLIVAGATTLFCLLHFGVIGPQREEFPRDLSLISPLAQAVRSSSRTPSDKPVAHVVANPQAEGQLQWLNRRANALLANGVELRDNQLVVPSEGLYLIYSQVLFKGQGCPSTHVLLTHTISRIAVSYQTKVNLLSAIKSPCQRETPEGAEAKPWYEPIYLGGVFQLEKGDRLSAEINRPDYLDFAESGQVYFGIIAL
# This list was built around the results that the source calls inconclusive (neither active nor inactive); the mix of calls is not that of the screen. Where a call stands in place of a potency, no number is given. For some of these results: A potency beside an inconclusive call is a rough fit, not a confirmed value. The source made the active and inactive calls. Unless noted, the call rests on the fitted dose curve; in most records, active means well fitted curve in the direction sought with a large enough effect; inconclusive means small, poorly fitted or top-dose-only effect, or another doubt; inactive means no such curve, though single readings can be large; an effect the other way counts as inactive or inconclusive.
# How the values were obtained:
# [1] = Cellular Toxicity (caspase-3) SK-N-SH (AID 661); details: SK-N-SH caspase-3 activation, qHTS, DMSO as zero, staurosporine as full; at 91.7 µM (top of the series);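 further: cells exposed to compound for 16 hours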
# Procedure, shortened: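 Caspase 3/7 activation was read by luminogenic substrate cleavage after 16 hour treatment of SK-N-SH cells. Signal was scaled between DMSO and 10 uM staurosporine, and concentration-response data were fitted with the Hill equation for AC50.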
# [2] = molecular target: Cytochrome P450 3A4 (Homo sapiens) (UniProt P08684); assay: qHTS Assay for Inhibitors and Substrates of Cytochrome P450 3A4 (AID 884); details: recombinant CYP3A4, Luciferin-PPXE luminescence; activity change, negative = inhibition: at 57.1 µM (top of the series) unless noted; further: nearly all actives have a fitted effect of over 50% in size
# Procedure, shortened: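 Luminescent readout of luciferin produced by CYP3A4 (20 nM) dealkylation of Luciferin-PPXE, 25 uM (its KM). NADPH-driven reaction ran 60 min at RT after 10 min compound preincubation; data scaled to 57 uM ketoconazole as 100% inhibition.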
# [3] = Cell Viability - LYMP2-022 (AID 987); further: nearly all actives have a fitted effect of over 55% in size
# Procedure, shortened: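 Cytotoxicity read as decreased cellular ATP (CellTiter-Glo luminescence, 30 min room temperature) after 24 hours compound exposure of 2500 lymphoblastoid LYMP2-022 cells/well at 37 C. Concentration-response data fitted with standard Hill equation for AC50.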
# [4] = molecular target: Androgen receptor (Homo sapiens) (UniProt P10275); assay: qHTS assay for small molecule antagonists of androgen receptor signaling (AID 588516; active means well fitted curve in the direction sought with a large enough effect in the signal ratio, with a control signal flat, not every such curve was filed as active; inconclusive means small, poorly fitted or top-dose-only effect, or effect the other way, or a change in a side signal; inactive means no such curve, though single readings can be large or run the other way; the % refers to the signal ratio); details: AR-UAS-bla HEK293, beta-lactamase ratio, antagonist mode, 16 h; activity change, negative = inhibition: at 76.8 µM (top of the series)
# Procedure, shortened: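 Antagonist mode: inhibition of R1881-stimulated (10 nM final) bla reporter in GeneBLAzer AR HEK 293 cells, 16 h at 37C, compounds titrated. IC50 and efficacy from Hill-equation fits of 405/460–530 nm FRET ratios.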
# [5] = molecular target: Vitamin D3 receptor (Homo sapiens) (UniProt P11473); assay: qHTS assay for small molecule antagonists of vitamin D receptor signaling (AID 588541; calls by dose curve;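 further: receptor activated by calcitriol during compound treatment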); details: HEK293T VDR-UAS-bla, beta-lactamase ratio, antagonist mode; activity change, negative = inhibition: at 76.7 µM (top of the series)
# [6] = qHTS assay for small molecule agonists of the antioxidant response element (ARE) signaling pathway (AID 651741; active means well fitted activation curve with a large enough effect in the signal ratio; inconclusive means small, poorly fitted or top-dose-only effect, or effect the other way, or a change in a side signal; the % refers to the signal ratio; further: potency means the concentration at half of the fitted maximal effect); details: HepG2 ARE-bla reporter, beta-lactamase FRET ratio, 16 h; activation: at 96 µM (top of the series) unless noted
# Procedure, shortened: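 Stably integrated ARE-beta-lactamase reporter HepG2 cells; 16 h compound incubation, 37 C; LiveBLAzer FRET substrate 2 h at room temperature; fluorescence intensity.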
# [7] = Cell Viability - LYMP2-009 (AID 968); details: LYMP2-009 lymphoblastoid cell viability; activity change, negative = viability loss: at 92.2 µM (top of the series);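 further: potency means the concentration at half of the fitted maximal effect; cells exposed to compound for 24 h at 37 °C; nearly all actives have a fitted effect of over 55% in size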
# [8] = Cell Viability - LYMP2-018 (AID 985); further: nearly all actives have a fitted effect of over 50% in size
# Procedure, shortened: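 Viability read as CellTiter-Glo luminescence (cellular ATP) after 24 hr compound exposure at 37 C of 2500 LYMP2-018 lymphoblastoid cells/well, pre-plated 5 hr. Hill-equation modelling gave AC50.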
# [9] = molecular target: Peroxisome proliferator-activated receptor gamma (Homo sapiens) (UniProt P37231); assay: qHTS assay for small molecule agonists of peroxisome proliferator-activated receptor gamma signaling (AID 588536; active means well fitted curve in the direction sought with a large enough effect in the signal ratio, with a control signal flat, not every such curve was filed as active; inconclusive means small, poorly fitted or top-dose-only effect, or effect the other way, or a change in a side signal; inactive means no such curve, though single readings can be large or run the other way; the % refers to the signal ratio); details: HEK293 PPARg-UAS-bla, beta-lactamase ratio, 16 h; activation: at 76.7 µM (top of the series), percent of rosiglitazone response, DMSO as zero
# Procedure, shortened: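 Beta-lactamase reporter read-out: CCF4 fluorescence (ex 405, em 460/530 nm) after 2 h at RT. HEK293 GeneBLAzer cells were treated for 16 h at 37 C. Hill fits gave EC50 and efficacy versus 2 uM rosiglitazone (100%) and DMSO (0%).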
# [10] = molecular target: Tumor necrosis factor (Homo sapiens) (UniProt P01375); assay: qHTS assay to identify small molecules that stimulate Tumor Necrosis Factor-alpha (TNF-alpha) secretion (AID 651757; active means well fitted curve in the direction sought with a large enough effect in the signal ratio; inconclusive means small, poorly fitted or top-dose-only effect, or a change in a side signal; inactive means no such curve, though single readings can be large or run the other way; the % refers to the signal ratio); details: Human cells, HTRF 665/615 ratio; activation (TNF-alpha secretion): at 92.2 µM (top of the series)
# Procedure, shortened: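 Secreted TNF-alpha quantified by TR-FRET sandwich of two labeled anti-TNF-alpha antibodies, incubated 3 hr at room temperature. Preceded by 17 hr, 37 C compound treatment of THP-1 cells at 3000 cells/well.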
# [11] = qHTS assay to identify small molecules that stimulate interleukin-8 (IL-8) secretion (AID 651758; active means well fitted activation curve with a large enough effect in the signal ratio; inconclusive means small, poorly fitted or top-dose-only effect, or effect the other way, or a change in a side signal; the % refers to the signal ratio); details: HTRF ratio (665/615); activation: at 92.2 µM (top of the series)
# Procedure, shortened: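 Compounds are added to THP-1 cells (2000 per well) and left 16 hrs at 37 C. A labeled anti-IL-8 antibody pair is then added, and IL-8 secretion is measured by time-resolved FRET after 1-3 hrs at room temperature.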
Structure (SMILES),caspase-3 activation [1],Potency [2],Potency [3],Potency [4],Potency [5],Potency [6],Potency [7],Potency [8],"activity change, negative = inhibition [4]",Potency [9],Potency [10],activation [11]
Cc1cccc([N+](=O)[O-])c1C,inactive: 0.493%,inactive,inactive,inactive,inactive,"inconclusive: 75 µM [activator, single point] and inactive",,,,,,
CCC(C)(C)C(=O)O,,,inactive,,,,"inconclusive: 20 µM [cytotoxic, single point]",inactive,inconclusive: -8.31%,inactive,inactive,inconclusive: 17.1%
